Data from patent publication US7875599B2, “C-17-heteroaryl steroidal CYP17 inhibitors/antiandrogens, in vitro biological activities, pharmacokinetics and antitumor activity” (University of Maryland, priority 2005, dated 2011).
Some of these results come from one statement about several compounds together.

Test system: LNCaP cells
Assay: LNCaP cell growth, WST-1 viability assay
Settings: read-out: IC50, inhibition of DHT-induced LNCaP cell proliferation, 1 nM DHT, 7 days

C[C@]12CC[C@H](O)CC1=CC[C@@H]1[C@@H]2CC[C@]2(C)C(n3cnc4ccccc43)=CC[C@@H]12 [Compound 5, 3β-Hydroxy-17-(1H-benzimidazol-1-yl)androsta-5,16-diene]
IC50: < 10 µM
